# Assay results from patent publication US20080175918A1, “CHEMICALLY CROSS-LINKED ELASTOMERIC MICROCAPSULES” (priority 2005, published 2008).
# The name of at least one read-out is uncertain.
# Experiment: Rhodamine release from chemically cross-linked poly(dimethyl siloxane) microcapsules (fluorescence photomicrographs, confocal microscopy)
# Type: physicochemical
# Conditions: one year after production
# From the text: FIGS. 18(a)-(c). A series of photomicrographs (200× magnification) depicting a population of rhodamine B-containing chemically cross-linked elastomeric microcapsules one hour and one year after manufacturing. […] In Particular:
# Elastomer-Permeable Therapeutic Agent Microencapsulation. Rhodamine dye was encapsulated within chemically cross-linked poly(dimethyl siloxane) microcapsules utilizing the hydrophilic agent encapsulation methods at low concentrations due to the hydrophilicity of the aqueous solution. However, rhodamine is hydrophobic and permeates vulcanized poly(dimethyl siloxane) in the same fashion as a hydrophobic therapeutic agent. The resultant population of microspheres was sieved and re-suspended in a dilute aqueous poly(vinyl alcohol) solution. Upon resuspension in the rhodamine-free aqueous solution, a series of fluorescence photomicrographs were obtained.
# To further investigate the shell-permeability and partition coefficient of the rhodamine within chemically cross-linked elastomeric microcapsules samples of the population of microcapsules that was tested for release were imaged by confocal microscopy.
smiles,measurement,value
"CCN(CC)c1ccc2c(-c3ccccc3C(=O)O)c3ccc(=[N+](CC)CC)cc-3oc2c1 [Rhodamine dye, rhodamine B]","shell-permeability (rhodamine within capsule shell, confocal microscopy)",enters the poly(dimethyl siloxane) shell
